Values from PubChem BioAssay AID1508588 (Peter MacCallum Cancer Centre, 2020)

- Test: 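Genome-wide search for knock-downs that heighten vemurafenib action in melanoma cells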 (primary screen)
- Cells: human WM266.4 melanoma cells (BRAF V600 mutant)
- Reagents: siRNA pool against human genes, 40 nM
- Duration: 96 h from transfection to read-out
- Treatment: vemurafenib 300 nM (about IC25), added 48 h after transfection, for 48 h; comparison arm got DMSO vehicle only
- Detection: 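Cell gain (DAPI nuclei at end minus before drug, mean of two replicates) and medium lactate by absorbance per cell, both as ratio to non-targeting siRNA, also grouped into fold-change classes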
- Reading the numbers: cell gain with vemurafenib: higher = more cell gain than with non-targeting siRNA; lactate per cell with vemurafenib: higher = more lactate made per cell
- Call rule: 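Enhancement is called by pairing each knock-down's vehicle-arm and drug-arm fold-change classes for viability or glycolysis; which class combinations qualify is not given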
- Calls: active = enhances vemurafenib effect; inactive = no enhancement seen
Shown is an unselected part of about 18,000 deposited reagents. Of all reagents, 790 (4.4%) got an active call. 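Calls rest on a combination of fold-change classes in drug and vehicle arms, not all shown here.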 Unmarked entries are inactive. Reagent sequences are not shown.

SERAC1: cell gain with vemurafenib = 0.54; lactate per cell with vemurafenib = 0.86
MAP1LC3A: cell gain with vemurafenib = 0.95; lactate per cell with vemurafenib = 1.1
PYDC1: cell gain with vemurafenib = 0.51; lactate per cell with vemurafenib = 0.84
TNFSF11: cell gain with vemurafenib = 0.22; lactate per cell with vemurafenib = 0.6
LCN15: cell gain with vemurafenib = 0.18; lactate per cell with vemurafenib = 0.43
CEP83: cell gain with vemurafenib = 0.75; lactate per cell with vemurafenib = 0.97
CEP20: cell gain with vemurafenib = 0.58; lactate per cell with vemurafenib = 0.72
OR4A16: cell gain with vemurafenib = 0.32; lactate per cell with vemurafenib = 0.82
USP29: cell gain with vemurafenib = 0.92; lactate per cell with vemurafenib = 1.25
ABTB2: cell gain with vemurafenib = 0.33; lactate per cell with vemurafenib = 1.58
SLX1A: cell gain with vemurafenib = 0.78; lactate per cell with vemurafenib = 0.88
GRHPR: cell gain with vemurafenib = 0.48; lactate per cell with vemurafenib = 1.46
DNASE1: cell gain with vemurafenib = 0.89; lactate per cell with vemurafenib = 0.73
MELTF: cell gain with vemurafenib = 0.59; lactate per cell with vemurafenib = 1.42
HSD17B4: cell gain with vemurafenib = 0.61; lactate per cell with vemurafenib = 0.52
DPY30: cell gain with vemurafenib = 0.81; lactate per cell with vemurafenib = 1.34
ECHDC3: cell gain with vemurafenib = 0.71; lactate per cell with vemurafenib = 0.91
SLC4A3: cell gain with vemurafenib = 0.34; lactate per cell with vemurafenib = 0.94
SLC19A1: cell gain with vemurafenib = 0.66; lactate per cell with vemurafenib = 1.59
MFRP: cell gain with vemurafenib = 0.79; lactate per cell with vemurafenib = 1.12
C3orf70: cell gain with vemurafenib = 0.8; lactate per cell with vemurafenib = 0.41
PEX2: cell gain with vemurafenib = 0.58; lactate per cell with vemurafenib = 0.6
CYP2F1: cell gain with vemurafenib = 1.04; lactate per cell with vemurafenib = 0.84
CNTROB: cell gain with vemurafenib = 0.24; lactate per cell with vemurafenib = 0.7
MEX3C: cell gain with vemurafenib = 0.98; lactate per cell with vemurafenib = 1.14
SMIM15: cell gain with vemurafenib = 1.04; lactate per cell with vemurafenib = 0.77
TTF1: cell gain with vemurafenib = 0.58; lactate per cell with vemurafenib = 0.99
EMD: cell gain with vemurafenib = 0.6; lactate per cell with vemurafenib = 0.52
SRSF4: cell gain with vemurafenib = 0.6; lactate per cell with vemurafenib = 0.67
DEFB104B: cell gain with vemurafenib = 0.44; lactate per cell with vemurafenib = 1.1
FLYWCH2: cell gain with vemurafenib = -0.1; lactate per cell with vemurafenib = 1.15
CUX2: cell gain with vemurafenib = 0.24; lactate per cell with vemurafenib = 1.84
CACNA1E: cell gain with vemurafenib = 0.67; lactate per cell with vemurafenib = 0.92
TTC31: cell gain with vemurafenib = 0.39; lactate per cell with vemurafenib = 0.6
GJB2: cell gain with vemurafenib = 0.61; lactate per cell with vemurafenib = 1.28
ASB12: cell gain with vemurafenib = 0.99; lactate per cell with vemurafenib = 0.66
MMS22L: cell gain with vemurafenib = 0.46; lactate per cell with vemurafenib = 1.16
EYA2: cell gain with vemurafenib = 0.7; lactate per cell with vemurafenib = 0.55
MPP3: cell gain with vemurafenib = 0.47; lactate per cell with vemurafenib = 0.61
STRC: cell gain with vemurafenib = 0.16 (active); lactate per cell with vemurafenib = 1.08
BRINP3: cell gain with vemurafenib = 1.1; lactate per cell with vemurafenib = 0.5
DRG2: cell gain with vemurafenib = 0.7; lactate per cell with vemurafenib = 0.55
TTLL2: cell gain with vemurafenib = 0.46; lactate per cell with vemurafenib = 0.86
HLCS: cell gain with vemurafenib = 0.89; lactate per cell with vemurafenib = 0.69
SLC45A3: cell gain with vemurafenib = 0.48; lactate per cell with vemurafenib = 1.23
PCYOX1L: cell gain with vemurafenib = 0.35; lactate per cell with vemurafenib = 1.21
TSR3: cell gain with vemurafenib = 0.47; lactate per cell with vemurafenib = 1.02
TINAG: cell gain with vemurafenib = 0.68; lactate per cell with vemurafenib = 0.99
METTL26: cell gain with vemurafenib = 0.64; lactate per cell with vemurafenib = 0.96
IPPK: cell gain with vemurafenib = 0.48; lactate per cell with vemurafenib = 1.48
ID2: cell gain with vemurafenib = 0.61; lactate per cell with vemurafenib = 1.32
RPUSD4: cell gain with vemurafenib = -0.05; lactate per cell with vemurafenib = 0.77

Hits, among the entries above:
STRC: cell gain with vemurafenib = 0.16 (active); lactate per cell with vemurafenib = 1.08
